Measured values published in patent publication US20210261642A1, “SOLUBILITY OF GLP-1 PEPTIDE” (Novo Nordisk A/S, priority 2017, published 2021).
Further values from the same series stand in other lists.

Experiment: Assay (I): Determination of Solubility (96-well plate, pH 3.0-11.0, organic solvent 0-70% w/w, UV absorption at 280 nm)
Format: physicochemical
Method: Assay (I): Determination of Solubility
96-Well Plate Preparation
96-well plates containing target peptide in a solid form were prepared in one of two ways:
Method 1 (evaporation): Addition of 100 μl stock solution of said peptide at a concentration of 4-6 mg/ml to each well of a 96-well half area plate (150 μl well size). Subsequently the solvent was evaporated by applying a vacuum until the solvent was completely removed.
Method 2 (precipitation): Addition of a certain volume of a stock solution of said peptide containing to each well of a 96-well half area plate followed by the addition of a certain volume of concentrated phosphoric acid to obtain a pH of 4.6 followed by addition of a certain volume of ethanol resulting in a final ethanol concentration of 20% v/v. Subsequently the plate was stored at 4° C. for 1 h and then centrifuged at 4,000 rpm for 20 min. Finally the supernatant was removed. The concentration of the stock solution was chosen in a way that the final amount of peptide after supernatant removal was >0.4 mg per well.
In both cases the stock solution was prepared by adding de-ionized water to a certain amount of powder of said peptide followed by a stepwise addition of small amounts of a concentrated sodium hydroxide solution until said peptide was completely in solution.
To determine solubility of a target peptide at different pH and organic solvent concentrations, two different buffer systems were used in independent experiments to cover the whole range from pH 3.0 to pH 11.0. Buffer system 1 covers pH 3.0-7.5 and buffer system 2 covers pH 7.5-11.0. For each buffer system 96 different solvent compositions were premixed in the following way: • 1. A low pH buffer (adjusted to either pH 3.0 or pH 7.5) and a high pH buffer (adjusted to either pH 7.5 or pH 11.0) were mixed at 8 different ratios to obtain values between pH 3.0 and pH 7.5 or pH 7.5 and pH 11.0, respectively. The total volume after mixing was 300 μl. • 2. 12 different amounts of organic solvent were then added to these buffers to obtain organic solvent (e.g. ethanol) concentrations between 0 and 70% w/w. • 3. Water was then added to obtain a total weight of 1.0 g of solvent in each well.
After preparing the 96 different solvent systems, 100 μl of each system was transferred to the 96-well plate containing the solid form of the target peptide (prepared as described in the section “96-well plate preparation”). The plate was then stored at a given temperature (between 5° C. and 70° C.) for a given time on a rotating shaker set to 400 rpm. At regular time intervals the plate was centrifuged (4,000 rpm for 10 min) and a 10 μl sample was taken from each well. The samples were then analysed by UV absorption at 280 nm for peptide quantification. Peptide concentration results are given as UV absorption at 280 nm of the sample subtracted UV absorption at 280 nm of a well comprising 10 μl water.
The buffers used were as follows: • Buffer system 1 (for the pH range from pH 3.0-7.5)
• Buffer system 2 (for the pH ranae from pH 7.5-11.0)
Solubility of liraglutide was determined using Assay (I) described herein. Liraglutide was prepared using Method 1 (evaporation) or Method 2 (precipitation) as described in subsection “96-well plate preparation”.

[1] = MeCN 38.2% w/w, pH 3.0, 70° C., Method 1
[2] = MeCN 38.2% w/w, pH 3.0, RT, Method 1
[3] = MeCN 38.2% w/w, pH 3.6, 5° C., Method 1
[4] = MeCN 38.2% w/w, pH 3.6, 70° C., Method 1
[5] = MeCN 38.2% w/w, pH 3.6, RT, Method 1
[6] = MeCN 38.2% w/w, pH 4.3, 5° C., Method 1
[7] = MeCN 38.2% w/w, pH 4.3, 70° C., Method 1
[8] = MeCN 38.2% w/w, pH 4.3, RT, Method 1
[9] = MeCN 38.2% w/w, pH 4.9, 5° C., Method 1
[10] = MeCN 38.2% w/w, pH 4.9, 70° C., Method 1
[11] = MeCN 38.2% w/w, pH 4.9, RT, Method 1
[12] = MeCN 38.2% w/w, pH 5.6, 5° C., Method 1
[13] = MeCN 38.2% w/w, pH 5.6, 70° C., Method 1
[14] = MeCN 38.2% w/w, pH 5.6, RT, Method 1
[15] = MeCN 38.2% w/w, pH 6.2, 5° C., Method 1
[16] = MeCN 38.2% w/w, pH 6.2, 70° C., Method 1
[17] = MeCN 38.2% w/w, pH 6.2, RT, Method 1
[18] = MeCN 38.2% w/w, pH 6.9, 5° C., Method 1
[19] = MeCN 38.2% w/w, pH 6.9, 70° C., Method 1
[20] = MeCN 38.2% w/w, pH 6.9, RT, Method 1
[21] = MeCN 38.2% w/w, pH 7.5, 5° C., Method 1
[22] = MeCN 38.2% w/w, pH 7.5, 70° C., Method 1
[23] = MeCN 38.2% w/w, pH 7.5, RT, Method 1
[24] = MeCN 38.2% w/w, pH 8.0, 70° C., Method 1 (evaporation)
[25] = MeCN 38.2% w/w, pH 8.0, RT, Method 1
[26] = MeCN 38.2% w/w, pH 8.5, 70° C., Method 1 (evaporation)
[27] = MeCN 38.2% w/w, pH 8.5, RT, Method 1
[28] = MeCN 38.2% w/w, pH 9.0, 70° C., Method 1 (evaporation)
[29] = MeCN 38.2% w/w, pH 9.0, RT, Method 1
[30] = MeCN 38.2% w/w, pH 9.5, 70° C., Method 1 (evaporation)
[31] = MeCN 38.2% w/w, pH 9.5, RT, Method 1
[32] = MeCN 38.2% w/w, pH 10.0, 70° C., Method 1 (evaporation)
[33] = MeCN 38.2% w/w, pH 10.0, RT, Method 1
[34] = MeCN 38.2% w/w, pH 10.5, 70° C., Method 1 (evaporation)
[35] = MeCN 38.2% w/w, pH 10.5, RT, Method 1
[36] = MeCN 38.2% w/w, pH 11.0, 70° C., Method 1 (evaporation)
[37] = MeCN 38.2% w/w, pH 11.0, RT, Method 1
[38] = MeCN 44.5% w/w, pH 3.0, 5° C., Method 1

CCCCCCCCCCCCCCCC(=O)N[C@@H](CCC(=O)NCCCC[C@H](NC(=O)[C@H](C)NC(=O)[C@H](C)NC(=O)[C@H](CCC(N)=O)NC(=O)CNC(=O)[C@H](CCC(=O)O)NC(=O)[C@H](CC(C)C)NC(=O)[C@H](Cc1ccc(O)cc1)NC(=O)[C@H](CO)NC(=O)[C@H](CO)NC(=O)[C@@H](NC(=O)[C@H](CC(=O)O)NC(=O)[C@H](CO)NC(=O)[C@@H](NC(=O)[C@H](Cc1ccccc1)NC(=O)[C@@H](NC(=O)CNC(=O)[C@H](CCC(=O)O)NC(=O)[C@H](C)NC(=O)[C@@H](N)Cc1cnc[nH]1)[C@@H](C)O)[C@@H](C)O)C(C)C)C(=O)N[C@@H](CCC(=O)O)C(=O)N[C@@H](Cc1ccccc1)C(=O)N[C@H](C(=O)N[C@@H](C)C(=O)N[C@@H](Cc1c[nH]c2ccccc12)C(=O)N[C@@H](CC(C)C)C(=O)N[C@H](C(=O)N[C@@H](CCCNC(=N)N)C(=O)NCC(=O)N[C@@H](CCCNC(=N)N)C(=O)NCC(=O)O)C(C)C)[C@@H](C)CC)C(=O)O [liraglutide, Arg34,Lys26-(N-epsilon-(gamma-L-glutamyl(N-alfa-hexadecanoyl)))-GLP-1(7-37)]
Peptide concentration after 24 h (MeCN 38.2% w/w, pH 3.0, 5° C., Method 1): 0.5 mg/mL
Peptide concentration after 5 min [1]: 0.7 mg/mL
Peptide concentration after 180 min [1]: 1.1 mg/mL
Peptide concentration after 5 min [2]: 0.4 mg/mL
Peptide concentration after 180 min [2]: 0.5 mg/mL
Peptide concentration after 24 h [2]: 0.1 mg/mL
Peptide concentration after 5 min [3]: 0.2 mg/mL
Peptide concentration after 180 min [3]: 0.5 mg/mL
Peptide concentration after 24 h [3]: 0.5 mg/mL
Peptide concentration after 5 min [4]: 0.4 mg/mL
Peptide concentration after 180 min [4]: 0.6 mg/mL
Peptide concentration after 5 min [5]: 0.2 mg/mL
Peptide concentration after 180 min [5]: 0.3 mg/mL
Peptide concentration after 24 h [5]: 0.0 mg/mL
Peptide concentration after 5 min [6]: 0.2 mg/mL
Peptide concentration after 180 min [6]: 0.3 mg/mL
Peptide concentration after 24 h [6]: 0.2 mg/mL
Peptide concentration after 5 min [7]: 0.4 mg/mL
Peptide concentration after 180 min [7]: 0.3 mg/mL
Peptide concentration after 5 min [8]: 0.3 mg/mL
Peptide concentration after 180 min [8]: 0.2 mg/mL
Peptide concentration after 24 h [8]: 0.1 mg/mL
Peptide concentration after 5 min [9]: 0.1 mg/mL
Peptide concentration after 180 min [9]: 0.3 mg/mL
Peptide concentration after 24 h [9]: 0.2 mg/mL
Peptide concentration after 5 min [10]: 0.3 mg/mL
Peptide concentration after 180 min [10]: 0.3 mg/mL
Peptide concentration after 5 min [11]: 0.2 mg/mL
Peptide concentration after 180 min [11]: 0.2 mg/mL
Peptide concentration after 24 h [11]: 0.0 mg/mL
Peptide concentration after 5 min [12]: 0.6 mg/mL
Peptide concentration after 180 min [12]: 0.6 mg/mL
Peptide concentration after 24 h [12]: 0.2 mg/mL
Peptide concentration after 5 min [13]: 1.1 mg/mL
Peptide concentration after 180 min [13]: 0.8 mg/mL
Peptide concentration after 5 min [14]: 0.7 mg/mL
Peptide concentration after 180 min [14]: 0.5 mg/mL
Peptide concentration after 24 h [14]: 0.1 mg/mL
Peptide concentration after 5 min [15]: 1.2 mg/mL
Peptide concentration after 180 min [15]: 1.1 mg/mL
Peptide concentration after 24 h [15]: 0.4 mg/mL
Peptide concentration after 5 min [16]: 1.7 mg/mL
Peptide concentration after 180 min [16]: 1.4 mg/mL
Peptide concentration after 5 min [17]: 1.1 mg/mL
Peptide concentration after 180 min [17]: 0.9 mg/mL
Peptide concentration after 24 h [17]: 0.2 mg/mL
Peptide concentration after 5 min [18]: 1.2 mg/mL
Peptide concentration after 180 min [18]: 2.6 mg/mL
Peptide concentration after 24 h [18]: 1.6 mg/mL
Peptide concentration after 5 min [19]: 2.7 mg/mL
Peptide concentration after 180 min [19]: 3.8 mg/mL
Peptide concentration after 5 min [20]: 1.5 mg/mL
Peptide concentration after 180 min [20]: 2.3 mg/mL
Peptide concentration after 24 h [20]: 0.6 mg/mL
Peptide concentration after 5 min [21]: 1.1 mg/mL
Peptide concentration after 180 min [21]: 4.0 mg/mL
Peptide concentration after 24 h [21]: >4.0 mg/mL
Peptide concentration after 5 min [22]: >4.0 mg/mL
Peptide concentration after 180 min [22]: >4.0 mg/mL
Peptide concentration after 5 min [23]: 1.0 mg/mL
Peptide concentration after 180 min [23]: >4.0 mg/mL
Peptide concentration after 24 h [23]: >4.0 mg/mL
Peptide concentration after 5 min [24]: 3.9 mg/mL
Peptide concentration after 180 min [24]: >4.0 mg/mL
Peptide concentration after 5 min [25]: 1.4 mg/mL
Peptide concentration after 180 min [25]: >4.0 mg/mL
Peptide concentration after 24 h [25]: >4.0 mg/mL
Peptide concentration after 5 min [26]: >4.0 mg/mL
Peptide concentration after 180 min [26]: >4.0 mg/mL
Peptide concentration after 5 min [27]: 1.7 mg/mL
Peptide concentration after 180 min [27]: >4.0 mg/mL
Peptide concentration after 24 h [27]: >4.0 mg/mL
Peptide concentration after 5 min [28]: 2.8 mg/mL
Peptide concentration after 180 min [28]: >4.0 mg/mL
Peptide concentration after 5 min [29]: 1.1 mg/mL
Peptide concentration after 180 min [29]: >4.0 mg/mL
Peptide concentration after 24 h [29]: >4.0 mg/mL
Peptide concentration after 5 min [30]: 4.0 mg/mL
Peptide concentration after 180 min [30]: >4.0 mg/mL
Peptide concentration after 5 min [31]: 1.0 mg/mL
Peptide concentration after 180 min [31]: >4.0 mg/mL
Peptide concentration after 24 h [31]: >4.0 mg/mL
Peptide concentration after 5 min [32]: >4.0 mg/mL
Peptide concentration after 180 min [32]: >4.0 mg/mL
Peptide concentration after 5 min [33]: 1.9 mg/mL
Peptide concentration after 180 min [33]: >4.0 mg/mL
Peptide concentration after 24 h [33]: >4.0 mg/mL
Peptide concentration after 5 min [34]: 3.3 mg/mL
Peptide concentration after 180 min [34]: >4.0 mg/mL
Peptide concentration after 5 min [35]: 1.6 mg/mL
Peptide concentration after 180 min [35]: >4.0 mg/mL
Peptide concentration after 24 h [35]: 3.8 mg/mL
Peptide concentration after 5 min [36]: 3.8 mg/mL
Peptide concentration after 180 min [36]: >4.0 mg/mL
Peptide concentration after 5 min [37]: 1.2 mg/mL
Peptide concentration after 180 min [37]: >4.0 mg/mL
Peptide concentration after 24 h [37]: 3.4 mg/mL
Peptide concentration after 5 min [38]: 0.4 mg/mL
Peptide concentration after 180 min [38]: 1.4 mg/mL
